# In paper PMC6420625:
# Protein sequences, listed by entry. Tags and fused reporters are not part of them.
# UniProt F2YGR7: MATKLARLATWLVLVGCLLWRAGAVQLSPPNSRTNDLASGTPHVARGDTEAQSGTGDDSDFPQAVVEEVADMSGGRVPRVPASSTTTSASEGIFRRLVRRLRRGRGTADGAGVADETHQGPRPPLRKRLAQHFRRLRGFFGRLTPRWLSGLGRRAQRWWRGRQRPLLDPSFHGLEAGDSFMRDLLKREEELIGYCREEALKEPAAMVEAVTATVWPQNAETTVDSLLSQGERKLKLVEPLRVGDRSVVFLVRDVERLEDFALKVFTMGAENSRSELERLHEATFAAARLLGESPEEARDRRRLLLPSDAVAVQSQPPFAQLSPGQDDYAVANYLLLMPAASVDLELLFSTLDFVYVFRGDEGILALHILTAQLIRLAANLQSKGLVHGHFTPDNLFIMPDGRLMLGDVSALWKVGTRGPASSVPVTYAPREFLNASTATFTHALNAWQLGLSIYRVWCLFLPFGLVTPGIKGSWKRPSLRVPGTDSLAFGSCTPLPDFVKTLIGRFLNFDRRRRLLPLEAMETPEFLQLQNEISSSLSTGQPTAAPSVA
# UniProt U5NGE1: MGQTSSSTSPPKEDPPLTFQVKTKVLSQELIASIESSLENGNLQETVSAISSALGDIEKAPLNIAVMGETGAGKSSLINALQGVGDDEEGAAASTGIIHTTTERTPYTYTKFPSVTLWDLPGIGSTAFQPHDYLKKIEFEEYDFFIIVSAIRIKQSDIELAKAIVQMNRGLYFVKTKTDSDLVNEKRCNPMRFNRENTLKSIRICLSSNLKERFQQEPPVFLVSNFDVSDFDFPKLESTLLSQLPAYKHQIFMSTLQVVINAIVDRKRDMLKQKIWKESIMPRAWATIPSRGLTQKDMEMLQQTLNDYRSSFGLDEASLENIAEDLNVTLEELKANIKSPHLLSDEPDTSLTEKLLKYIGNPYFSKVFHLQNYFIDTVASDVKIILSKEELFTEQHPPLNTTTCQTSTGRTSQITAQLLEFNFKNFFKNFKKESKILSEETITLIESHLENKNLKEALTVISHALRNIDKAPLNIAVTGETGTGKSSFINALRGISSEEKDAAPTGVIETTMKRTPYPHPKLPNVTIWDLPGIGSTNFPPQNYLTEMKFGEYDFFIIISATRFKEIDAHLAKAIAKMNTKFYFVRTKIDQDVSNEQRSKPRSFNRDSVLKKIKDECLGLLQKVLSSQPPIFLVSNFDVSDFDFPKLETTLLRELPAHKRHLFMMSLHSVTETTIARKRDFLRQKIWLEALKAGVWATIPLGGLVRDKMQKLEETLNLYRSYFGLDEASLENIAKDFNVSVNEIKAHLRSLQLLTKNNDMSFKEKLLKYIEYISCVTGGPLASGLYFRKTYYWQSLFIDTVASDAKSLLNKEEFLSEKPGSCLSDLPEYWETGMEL
# No constants are given. Whether binding was seen depends on the method and setting. Some entries that bind do so weakly or less than the wild type.
# Target: ROP5B (T. gondii RH), yeast two-hybrid fusion (Toxoplasma gondii, strain RH) (UniProt F2YGR7)
# Assay: two-hybrid; S. cerevisiae PJ69-4α, Gal4 AD (pGAD-C3) and BD (pGBD-C3) fusions; growth on triple dropout medium (SD/-Leu/-Trp/-His) with 1 mM 3-AT, 5 to 10 days at 30 °C
substance,measurement,value
"Irgb2-b1CIM, yeast two-hybrid fusion (from UniProt U5NGE1 1-835)",binding,binds
